The values that follow come from the supplement of paper PMC12819154, “High-throughput peptide-centric local stability assay extends protein–ligand identification to membrane proteins, tissues and bacteria” (Nature Structural & Molecular Biology, 2025).

Protein sequences, listed by entry. Tags and fused reporters are not part of them. Lines headed by an entry give the natural chain unless they say otherwise; changes in a name come on top.
UniProt A6NDY0: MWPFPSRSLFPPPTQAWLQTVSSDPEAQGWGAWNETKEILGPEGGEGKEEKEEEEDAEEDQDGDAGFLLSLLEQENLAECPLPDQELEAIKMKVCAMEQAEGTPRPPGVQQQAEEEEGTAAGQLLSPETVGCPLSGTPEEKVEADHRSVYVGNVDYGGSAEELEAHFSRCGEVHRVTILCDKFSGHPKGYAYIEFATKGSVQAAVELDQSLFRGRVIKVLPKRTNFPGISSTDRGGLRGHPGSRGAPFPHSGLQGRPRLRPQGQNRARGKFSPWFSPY
UniProt A5PL33: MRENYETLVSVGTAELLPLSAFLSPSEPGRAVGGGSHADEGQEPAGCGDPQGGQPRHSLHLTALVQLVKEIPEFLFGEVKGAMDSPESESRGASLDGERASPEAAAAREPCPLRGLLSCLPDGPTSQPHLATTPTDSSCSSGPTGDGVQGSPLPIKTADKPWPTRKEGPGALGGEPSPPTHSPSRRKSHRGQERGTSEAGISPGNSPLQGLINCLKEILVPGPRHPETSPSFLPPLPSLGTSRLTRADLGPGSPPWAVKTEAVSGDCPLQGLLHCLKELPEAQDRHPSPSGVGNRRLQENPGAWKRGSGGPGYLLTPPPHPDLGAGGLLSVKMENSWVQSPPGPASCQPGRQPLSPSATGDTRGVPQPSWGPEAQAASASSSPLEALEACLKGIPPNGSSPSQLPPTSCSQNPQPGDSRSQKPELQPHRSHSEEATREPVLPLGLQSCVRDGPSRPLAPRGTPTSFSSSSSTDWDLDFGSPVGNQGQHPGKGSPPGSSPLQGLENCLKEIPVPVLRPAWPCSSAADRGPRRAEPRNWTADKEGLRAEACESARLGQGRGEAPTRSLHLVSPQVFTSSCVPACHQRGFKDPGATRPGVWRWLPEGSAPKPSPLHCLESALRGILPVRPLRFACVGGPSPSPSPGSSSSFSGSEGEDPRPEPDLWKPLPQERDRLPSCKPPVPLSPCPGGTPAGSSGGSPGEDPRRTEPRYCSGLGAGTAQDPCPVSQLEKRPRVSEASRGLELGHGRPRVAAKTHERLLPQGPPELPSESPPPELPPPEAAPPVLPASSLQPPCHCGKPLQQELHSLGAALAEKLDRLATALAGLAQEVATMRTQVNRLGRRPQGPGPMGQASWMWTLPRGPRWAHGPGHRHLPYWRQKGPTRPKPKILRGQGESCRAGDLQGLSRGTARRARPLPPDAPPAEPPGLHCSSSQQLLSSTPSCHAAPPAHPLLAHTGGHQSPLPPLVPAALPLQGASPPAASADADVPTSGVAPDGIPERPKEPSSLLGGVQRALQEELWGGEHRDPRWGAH
UniProt A0FGR8: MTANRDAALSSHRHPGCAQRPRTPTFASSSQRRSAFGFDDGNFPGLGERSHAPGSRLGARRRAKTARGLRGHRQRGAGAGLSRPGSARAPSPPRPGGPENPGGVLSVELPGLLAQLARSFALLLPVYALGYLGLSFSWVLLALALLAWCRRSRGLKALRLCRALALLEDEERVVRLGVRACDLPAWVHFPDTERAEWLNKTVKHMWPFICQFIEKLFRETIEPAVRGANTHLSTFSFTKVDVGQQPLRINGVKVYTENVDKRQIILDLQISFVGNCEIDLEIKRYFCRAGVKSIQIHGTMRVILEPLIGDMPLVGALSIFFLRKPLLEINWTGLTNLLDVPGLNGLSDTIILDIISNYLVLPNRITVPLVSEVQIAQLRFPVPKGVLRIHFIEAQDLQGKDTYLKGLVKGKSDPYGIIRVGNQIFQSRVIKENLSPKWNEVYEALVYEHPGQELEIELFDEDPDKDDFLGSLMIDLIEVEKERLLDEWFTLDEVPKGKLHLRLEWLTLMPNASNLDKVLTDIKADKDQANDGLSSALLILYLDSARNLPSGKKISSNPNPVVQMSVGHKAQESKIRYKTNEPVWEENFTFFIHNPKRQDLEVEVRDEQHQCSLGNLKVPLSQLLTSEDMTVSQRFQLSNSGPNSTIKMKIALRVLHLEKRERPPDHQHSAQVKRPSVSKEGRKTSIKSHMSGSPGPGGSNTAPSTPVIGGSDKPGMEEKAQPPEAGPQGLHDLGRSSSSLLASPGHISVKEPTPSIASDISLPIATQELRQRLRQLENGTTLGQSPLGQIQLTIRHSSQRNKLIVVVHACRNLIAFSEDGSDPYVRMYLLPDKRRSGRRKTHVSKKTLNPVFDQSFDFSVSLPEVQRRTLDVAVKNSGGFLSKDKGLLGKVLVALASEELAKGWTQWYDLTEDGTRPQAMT
UniProt A4FU28: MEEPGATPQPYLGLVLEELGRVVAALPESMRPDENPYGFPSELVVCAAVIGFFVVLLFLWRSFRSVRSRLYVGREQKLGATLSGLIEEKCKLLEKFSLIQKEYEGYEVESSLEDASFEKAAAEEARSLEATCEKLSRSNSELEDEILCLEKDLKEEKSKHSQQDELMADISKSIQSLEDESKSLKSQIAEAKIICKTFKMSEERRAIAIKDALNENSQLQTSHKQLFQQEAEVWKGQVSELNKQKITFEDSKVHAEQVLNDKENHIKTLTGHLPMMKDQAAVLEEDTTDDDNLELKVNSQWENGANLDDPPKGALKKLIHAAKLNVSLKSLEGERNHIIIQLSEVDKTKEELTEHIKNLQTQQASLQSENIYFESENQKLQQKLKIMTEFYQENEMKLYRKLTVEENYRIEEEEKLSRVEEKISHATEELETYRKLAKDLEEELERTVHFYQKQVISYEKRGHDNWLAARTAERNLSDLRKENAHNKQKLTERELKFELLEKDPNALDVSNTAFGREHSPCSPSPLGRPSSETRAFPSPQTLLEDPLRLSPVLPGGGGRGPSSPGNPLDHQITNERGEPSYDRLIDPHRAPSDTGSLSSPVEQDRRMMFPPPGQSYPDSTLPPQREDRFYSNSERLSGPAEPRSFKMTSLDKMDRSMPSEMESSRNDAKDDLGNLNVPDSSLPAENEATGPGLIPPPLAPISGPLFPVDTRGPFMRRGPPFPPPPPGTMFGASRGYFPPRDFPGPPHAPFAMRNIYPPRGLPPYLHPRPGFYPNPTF
UniProt A2RRD8: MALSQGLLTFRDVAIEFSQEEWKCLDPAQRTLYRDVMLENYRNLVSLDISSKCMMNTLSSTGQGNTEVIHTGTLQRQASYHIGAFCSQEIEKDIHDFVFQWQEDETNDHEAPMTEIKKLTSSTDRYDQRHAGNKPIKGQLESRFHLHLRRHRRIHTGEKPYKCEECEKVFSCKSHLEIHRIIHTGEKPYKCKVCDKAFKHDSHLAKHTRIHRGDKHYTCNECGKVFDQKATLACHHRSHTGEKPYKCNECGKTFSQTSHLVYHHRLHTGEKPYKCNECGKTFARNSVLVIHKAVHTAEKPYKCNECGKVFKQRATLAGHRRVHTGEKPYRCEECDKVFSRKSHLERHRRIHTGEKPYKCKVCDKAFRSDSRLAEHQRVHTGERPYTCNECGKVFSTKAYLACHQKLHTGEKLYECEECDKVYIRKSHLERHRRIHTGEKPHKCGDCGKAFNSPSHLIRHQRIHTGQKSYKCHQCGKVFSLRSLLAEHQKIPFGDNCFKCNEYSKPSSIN
UniProt A2RUB6: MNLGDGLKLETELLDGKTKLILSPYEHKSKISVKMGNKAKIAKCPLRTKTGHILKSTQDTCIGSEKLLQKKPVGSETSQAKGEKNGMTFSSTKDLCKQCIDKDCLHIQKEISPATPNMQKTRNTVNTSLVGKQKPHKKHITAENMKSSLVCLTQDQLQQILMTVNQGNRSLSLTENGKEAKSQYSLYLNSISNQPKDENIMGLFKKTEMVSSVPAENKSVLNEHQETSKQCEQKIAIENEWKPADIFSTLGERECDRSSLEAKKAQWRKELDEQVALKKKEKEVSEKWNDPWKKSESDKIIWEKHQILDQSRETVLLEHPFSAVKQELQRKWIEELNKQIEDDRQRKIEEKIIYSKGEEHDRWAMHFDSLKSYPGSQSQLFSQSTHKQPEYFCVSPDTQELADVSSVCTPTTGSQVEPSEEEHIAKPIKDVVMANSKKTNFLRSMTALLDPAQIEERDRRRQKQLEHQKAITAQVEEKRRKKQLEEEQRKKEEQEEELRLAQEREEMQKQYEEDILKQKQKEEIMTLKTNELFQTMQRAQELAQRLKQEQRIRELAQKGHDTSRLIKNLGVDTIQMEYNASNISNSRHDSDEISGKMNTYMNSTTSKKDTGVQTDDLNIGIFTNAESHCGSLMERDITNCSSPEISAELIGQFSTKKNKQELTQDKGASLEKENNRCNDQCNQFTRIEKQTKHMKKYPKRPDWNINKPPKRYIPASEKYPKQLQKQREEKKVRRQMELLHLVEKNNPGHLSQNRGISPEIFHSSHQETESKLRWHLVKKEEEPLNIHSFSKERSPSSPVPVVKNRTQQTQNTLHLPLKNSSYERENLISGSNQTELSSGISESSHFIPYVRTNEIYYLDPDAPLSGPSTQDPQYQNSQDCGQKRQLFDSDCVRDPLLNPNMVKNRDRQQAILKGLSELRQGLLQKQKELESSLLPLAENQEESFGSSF
UniProt A4D126: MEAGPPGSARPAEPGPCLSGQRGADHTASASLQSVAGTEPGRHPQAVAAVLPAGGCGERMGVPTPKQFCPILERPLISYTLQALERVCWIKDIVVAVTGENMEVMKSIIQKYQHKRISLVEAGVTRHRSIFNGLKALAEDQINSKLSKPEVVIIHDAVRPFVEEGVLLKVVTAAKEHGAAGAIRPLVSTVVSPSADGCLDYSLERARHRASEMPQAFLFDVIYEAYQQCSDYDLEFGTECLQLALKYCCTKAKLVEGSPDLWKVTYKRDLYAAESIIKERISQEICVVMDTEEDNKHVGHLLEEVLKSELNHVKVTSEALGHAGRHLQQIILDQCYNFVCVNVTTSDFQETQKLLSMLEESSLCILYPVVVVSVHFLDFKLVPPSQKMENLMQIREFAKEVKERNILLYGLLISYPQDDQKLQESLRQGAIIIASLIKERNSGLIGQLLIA
UniProt A4D2B8: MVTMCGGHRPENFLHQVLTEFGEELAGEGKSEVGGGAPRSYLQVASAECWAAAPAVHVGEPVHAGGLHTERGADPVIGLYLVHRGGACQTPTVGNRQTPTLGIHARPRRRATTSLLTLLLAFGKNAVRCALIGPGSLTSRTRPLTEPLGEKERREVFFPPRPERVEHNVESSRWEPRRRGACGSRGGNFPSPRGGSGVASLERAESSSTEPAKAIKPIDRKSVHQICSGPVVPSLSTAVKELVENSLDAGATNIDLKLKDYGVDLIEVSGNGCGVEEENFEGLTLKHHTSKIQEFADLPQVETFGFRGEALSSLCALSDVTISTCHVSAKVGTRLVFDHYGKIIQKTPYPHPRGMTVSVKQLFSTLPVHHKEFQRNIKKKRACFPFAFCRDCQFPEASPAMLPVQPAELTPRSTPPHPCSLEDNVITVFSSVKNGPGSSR
UniProt A1X283: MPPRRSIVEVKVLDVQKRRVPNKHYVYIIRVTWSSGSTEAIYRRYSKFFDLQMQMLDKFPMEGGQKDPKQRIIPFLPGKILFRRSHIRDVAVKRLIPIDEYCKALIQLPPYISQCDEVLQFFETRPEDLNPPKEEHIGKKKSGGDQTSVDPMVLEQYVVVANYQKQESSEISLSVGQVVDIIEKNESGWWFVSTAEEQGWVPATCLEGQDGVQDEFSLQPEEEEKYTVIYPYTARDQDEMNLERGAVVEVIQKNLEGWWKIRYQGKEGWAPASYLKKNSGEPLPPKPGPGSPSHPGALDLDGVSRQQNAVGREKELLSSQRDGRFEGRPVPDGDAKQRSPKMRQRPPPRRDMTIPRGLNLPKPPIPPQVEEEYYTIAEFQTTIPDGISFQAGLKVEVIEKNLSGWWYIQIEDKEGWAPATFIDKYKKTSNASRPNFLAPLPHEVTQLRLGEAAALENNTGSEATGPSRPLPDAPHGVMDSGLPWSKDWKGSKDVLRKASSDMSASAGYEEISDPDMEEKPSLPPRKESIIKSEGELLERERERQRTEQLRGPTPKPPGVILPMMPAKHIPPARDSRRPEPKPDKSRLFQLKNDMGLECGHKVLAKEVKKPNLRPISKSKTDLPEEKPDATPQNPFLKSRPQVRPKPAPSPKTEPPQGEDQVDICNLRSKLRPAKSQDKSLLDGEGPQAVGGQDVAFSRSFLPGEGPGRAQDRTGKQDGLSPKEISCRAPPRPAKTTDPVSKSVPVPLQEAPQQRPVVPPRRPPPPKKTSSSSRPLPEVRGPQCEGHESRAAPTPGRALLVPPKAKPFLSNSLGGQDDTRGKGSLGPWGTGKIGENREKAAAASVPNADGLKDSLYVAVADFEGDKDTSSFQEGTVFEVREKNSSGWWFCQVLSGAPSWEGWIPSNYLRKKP

The list shows a part of the results. Small differences around the control level are noise.

Compound in this experiment: CN[C@@H]1C[C@H]2O[C@@](C)([C@@H]1OC)n1c3ccccc3c3c4c(c5c6ccccc6n2c5c31)C(=O)NC4 [staurosporine]
Description: log2 fold change of tryptic peptide abundance, ligand vs vehicle (limited proteolysis) (log2 ratio); higher = more trypsin-susceptible (destabilized). Conditions: ligand concentration: 20 uM; sample: K562 cleared lysate; digestion: 4 min, 22 C (HT-PELSA RT4min, Orbitrap Astral).
For the target “UniProt A6NDY0 (peptide sequence: VTILCDKFSGHPK, peptide start residue: 201)”, the log2 fold change is -0.0817.

On to “A0AV96 (peptide sequence: GFAFVEYESHR, peptide start residue: 195)”, for which the log2 fold change was -0.152.

Take “UniProt A6NE01 (peptide sequence: VKRESPFDK, peptide start residue: 550)”: the log2 fold change is 0.151.

Turning to “KRBA1 (peptide sequence: SHSEEATREPVLPLGLQSCVR, peptide start residue: 430) (UniProt A5PL33)”, the log2 fold change was -0.432.

Regarding “UniProt A1L4K1 (peptide sequence: HTFASSRHK, peptide start residue: 660)”, the log2 fold change came out at 0.108.

Take “A0A2Z4LIS9 (peptide sequence: AGSAMAIGGGGGSR, peptide start residue: 158), A0A2Z4LIS9”: the log2 fold change was -0.242.

Take “UniProt A0FGR8 (peptide sequence: ALALLEDEER, peptide start residue: 163)”: the log2 fold change is -0.134.

In the case of “A0A1B0GUS4 (peptide sequence: IYHPNIDEK, peptide start residue: 74), A0A1B0GUS4”, the log2 fold change is 0.134.

Take “UniProt A4FU28 (peptide sequence: ISHATEELETYR, peptide start residue: 1029)”: the log2 fold change is 0.168.

As to “A0A7P0TAN4 (peptide sequence: TFSQTSSLVGHR, peptide start residue: 323)”, the log2 fold change is 0.31.

In the case of “UniProt A2RRD8 (peptide sequence: NLVSLDISSK, peptide start residue: 43)”, the log2 fold change was 0.164.

With “CCDC66 (peptide sequence: TNELFQTMQR, peptide start residue: 529) (UniProt A2RUB6)”, the log2 fold change stood at 0.475.

For the target “CRPPA (peptide sequence: ALAEDQINSK, peptide start residue: 136) (UniProt A4D126)”, the log2 fold change came to 0.218.

Regarding “A0AUZ9 (peptide sequence: EILTPSWR, peptide start residue: 884)”, the log2 fold change was -0.291.

Take “A0AVK6 (peptide sequence: KLEVSTEDVH, peptide start residue: 858)”: the log2 fold change was found to be 0.691.

As to “UniProt A0MZ66 (peptide sequence: ISHMVIEEVNFMQNHLEIEK, peptide start residue: 58)”, the log2 fold change is 0.233.

For the target “UniProt A4D2B8 (peptide sequence: AESSSTEPAK, peptide start residue: 4)”, the log2 fold change was -0.15.

On to “A0A590UK10 (peptide sequence: ALQEELQFSSK, peptide start residue: 476)”, for which the log2 fold change was -0.655.

As to “SH3PXD2B (peptide sequence: SFLPGEGPGR, peptide start residue: 699) (UniProt A1X283)”, the log2 fold change is -0.179.
